Measurements as given in the supplement of paper PMC3334620.
Over roughly 33,000 sequences, “E-score (-0.5 to 0.5)” has its median near -0.015; the highest 2% begin near 0.3. This is one part of the list.

Target: T1, Abf1 (UniProt P14164)
T1 sequence: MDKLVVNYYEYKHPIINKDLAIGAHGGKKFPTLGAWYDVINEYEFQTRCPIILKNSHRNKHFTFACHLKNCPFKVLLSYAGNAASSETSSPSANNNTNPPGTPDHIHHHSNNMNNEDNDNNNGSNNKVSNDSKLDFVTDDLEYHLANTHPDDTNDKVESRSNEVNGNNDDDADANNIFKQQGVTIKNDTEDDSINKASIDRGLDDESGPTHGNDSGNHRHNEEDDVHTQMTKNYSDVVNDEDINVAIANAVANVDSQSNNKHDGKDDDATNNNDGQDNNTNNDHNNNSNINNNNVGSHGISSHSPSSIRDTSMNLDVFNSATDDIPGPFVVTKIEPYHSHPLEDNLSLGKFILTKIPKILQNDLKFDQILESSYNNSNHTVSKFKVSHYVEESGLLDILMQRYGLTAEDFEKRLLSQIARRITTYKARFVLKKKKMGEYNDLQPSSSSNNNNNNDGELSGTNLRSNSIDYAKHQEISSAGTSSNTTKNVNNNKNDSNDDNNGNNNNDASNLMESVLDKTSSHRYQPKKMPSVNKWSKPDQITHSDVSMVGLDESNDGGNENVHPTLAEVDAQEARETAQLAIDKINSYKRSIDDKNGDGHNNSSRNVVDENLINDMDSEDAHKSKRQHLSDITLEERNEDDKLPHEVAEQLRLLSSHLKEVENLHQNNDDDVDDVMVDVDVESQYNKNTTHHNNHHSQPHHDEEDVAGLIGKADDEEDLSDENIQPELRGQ
Assay: PBM E-score (8-mer binding enrichment) (E-score (-0.5 to 0.5)); higher = stronger / more preferred TF binding
Conditions: protein concentration: 200 nM; construct: GST-full length
How it was run: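 PURExpress in vitro transcription/translation supplied GST-tagged yeast transcription factors, either full-length or DNA-binding domain. Applied at about 100-200 nM to universal all-10-mer Agilent arrays double-stranded by primer extension, the bound protein was detected with fluorescent anti-GST. E-scores, modified Wilcoxon-Mann-Whitney statistics, were given by the Universal PBM Analysis Suite to ungapped eight-base words pooled with their reverse complements after masliner normalisation.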

Row | Sequence | PBM E-score
1 | AAGCCTAG | -0.127
2 | ACAGATCG | 0.0874
3 | AGAATGAG | -0.157
4 | AGGCGAGA | -0.143
5 | ACCAGGAC | -0.203
6 | ACAAGAAA | 0.0193
7 | CCTTTCTA | -0.0753
8 | GACACAAA | 0.0703
9 | CGTAGGAC | 0.0785
10 | CGCGATAC | 0.0688
11 | AATCCATA | 0.0202
12 | CTCGTGCA | 0.124
13 | CGGAATCC | -0.13
14 | CGACTAGA | -0.0323
15 | CCAGGCTA | -0.22
16 | ACTCACCG | -0.0469
17 | GCTTACTA | -0.115
18 | ACAACGGG | 0.198
19 | CCACGTCG | -0.00795
20 | AGAATCAC | 0.0856
21 | CTTGAGCA | -0.112
22 | ACGGCAAT | 0.277

Row | Sequence | PBM E-score
23 | CATTTGAC | -0.0151
24 | CCGACGGA | 0.0216
25 | GTAGGACA | 0.095
26 | TCACGTGA | 0.135
27 | GTCCCAAA | -0.0319
28 | CTAACTAC | 0.125
29 | CAGGCTCG | -0.0152
30 | GGAACAAA | 0.0294
31 | GAAAATTA | 0.0837
32 | GCGACTCA | 0.00435
33 | ACACCGAT | -0.134
34 | AGTTGACA | 0.221
35 | ACCGCATA | 0.0566
36 | CCGGCGTC | -0.0803
37 | CTCGCGTC | -0.0662
38 | CAATATAC | 0.107
39 | ACTATTCT | 0.089
40 | CGTGCTTA | 0.0846
41 | GCCATCCC | -0.255
42 | ACAGACAC | -0.0281
43 | CCTACATC | 0.0243
44 | GCTCATCA | 0.189

Row | Sequence | PBM E-score
45 | AGAATTGC | -0.127
46 | AGTGCTAC | 0.0565
47 | CAAGCTGC | -0.227
48 | CCAAGGAC | -0.0293
49 | CAATAACA | -0.0367
50 | AGAACGCA | -0.0532
51 | TCGATCAA | -0.0096
52 | TGAGCAAA | 0.109
53 | TCTGTCAA | 0.0208
54 | CTGTCTGA | -0.106
55 | ATGTCCGC | -0.0181
56 | GAATTATC | 0.137
57 | CACAAAAC | -0.0381
58 | CCCCATCC | -0.162
59 | ATAAGGTG | 0.146
60 | GACATCGC | 0.272
61 | ATGGTCCA | -0.148
62 | TCGGACAA | 0.0647
63 | TTAGATAA | 0.139
64 | CGTGCATA | 0.251
65 | AGGTACAT | 0.144
66 | CCCTAGGA | -0.261

Row | Sequence | PBM E-score
67 | CGGTTTCC | -0.0609
68 | CAACAGTC | -0.257
69 | AATCACGA | 0.309
70 | CTCGTATC | 0.26
71 | ACGAACCC | 0.0128
72 | CCGAAGAA | -0.122
73 | TATACTCA | 0.0461
74 | AGTCAGTA | -0.134
75 | GCTCCTCA | -0.167
76 | ATAATTTC | 0.176
77 | ATAGGAAA | 0.126
78 | AGTCCTTC | -0.141
79 | GTGAGACA | 0.12
80 | ATCCTATC | 0.0831
81 | GCCAAACC | -0.176
82 | CGAGCGGC | -4e-05
83 | CAAAGCAA | 0.0821
84 | CCCATCCA | -0.0429
85 | CGATGCCG | -0.0951
86 | ACTCAACC | 0.0268

Copied from the entries so far for reference:
Row | Sequence | PBM E-score
70 | CTCGTATC | 0.26
71 | ACGAACCC | 0.0128
72 | CCGAAGAA | -0.122
73 | TATACTCA | 0.0461
74 | AGTCAGTA | -0.134
75 | GCTCCTCA | -0.167
